# The list shows a part of the results.
# B1: MtEccB1 (Mycobacterium tuberculosis H37Rv), O69734 (protein)
# chain: MGLRLTTKVQVSGWRFLLRRLEHAIVRRDTRMFDDPLQFYSRSIALGIVVAVLILAGAALLAYFKPQGKLGGTSLFTDRATNQLYVLLSGQLHPVYNLTSARLVLGNPANPATVKSSELSKLPMGQTVGIPGAPYATPVSAGSTSIWTLCDTVARADSTSPVVQTAVIAMPLEIDASIDPLQSHEAVLVSYQGETWIVTTKGRHAIDLTDRALTSSMGIPVTARPTPISEGMFNALPDMGPWQLPPIPAAGAPNSLGLPDDLVIGSVFQIHTDKGPQYYVVLPDGIAQVNATTAAALRATQAHGLVAPPAMVPSLVVRIAERVYPSPLPDEPLKIVSRPQDPALCWSWQRSAGDQSPQSTVLSGRHLPISPSAMNMGIKQIHGTATVYLDGGKFVALQSPDPRYTESMYYIDPQGVRYGVPNAETAKSLGLSSPQNAPWEIVRLLVDGPVLSKDAALLEHDTLPADPSPRKVPAGASGAP
# Tests used:
# Test in all cases: glycan array binding signal (z-score within array); higher = stronger binding
# Settings in all cases: glycan notation: IUPAC condensed, linker removed
# Glc(b1-4)Glc = target: Glc(b1-4)Glc
# Method in brief: (§1)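 From the Consortium for Functional Glycomics database, 3228 arrays were curated, keeping only those whose protein sequence was available. Binding is given as a within-array Z-score averaged across arrays sharing a protein sequence and across linkers. Negative Z-scores can be read as non-binding.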
# Glc(b1-6)Glc = target: Glc(b1-6)Glc
# Method in brief: as §1
# GlcA(b1-3)Gal = target: GlcA(b1-3)Gal
# Method in brief: as §1
# GlcA(b1-3)GlcNAc = target: GlcA(b1-3)GlcNAc
# Method in brief: as §1
# GlcA(b1-6)Gal = target: GlcA(b1-6)Gal
# Method in brief: as §1
# [1] = target: GlcA3S(b1-3)Gal(b1-4)GlcNAc(b1-2)Man
# Method in brief: as §1
# [2] = target: GlcA3S(b1-3)Gal(b1-4)GlcNAc(b1-3)Gal(b1-4)Glc
# Method in brief: as §1
# [3] = target: GlcNAc(a1-3)Gal(b1-4)GlcNAc
# Method in brief: as §1
# [4] = target: GlcNAc(a1-4)Gal(b1-3)GlcNAc
# Method in brief: as §1
# [5] = target: GlcNAc(a1-4)Gal(b1-4)GalNAc
# Method in brief: as §1
# [6] = target: GlcNAc(a1-4)Gal(b1-4)GlcNAc
# Method in brief: as §1
# [7] = target: GlcNAc(a1-4)Gal(b1-4)GlcNAc(b1-3)Gal(b1-4)Glc
# Method in brief: as §1
# [8] = target: GlcNAc(a1-4)Gal(b1-4)GlcNAc(b1-3)Gal(b1-4)GlcNAc
# Method in brief: as §1
# [9] = target: GlcNAc(a1-4)Gal(b1-4)GlcNAc(b1-3)Gal(b1-4)GlcNAc(b1-3)Gal(b1-4)GlcNAc
# Method in brief: as §1
# [10] = target: GlcNAc(a1-4)Gal(b1-4)GlcNAc(b1-3)Gal(b1-4)[Fuc(a1-3)]GlcNAc(b1-3)Gal(b1-4)[Fuc(a1-3)]GlcNAc
# Method in brief: as §1
# [11] = target: GlcNAc(a1-6)Gal(b1-4)GlcNAc
# Method in brief: as §1
# [12] = target: GlcNAc(b1-2)Gal(b1-3)GalNAc
# Method in brief: as §1
# [13] = target: GlcNAc(b1-2)Man(a1-3)[GlcNAc(b1-2)Man(a1-6)]Man(b1-4)GlcNAc(b1-4)GlcNAc
# Method in brief: as §1
# [14] = target: GlcNAc(b1-2)Man(a1-3)[GlcNAc(b1-2)Man(a1-6)]Man(b1-4)GlcNAc(b1-4)[Fuc(a1-6)]GlcNAc
# Method in brief: as §1
# [15] = target: GlcNAc(b1-2)Man(a1-3)[GlcNAc(b1-4)][GlcNAc(b1-2)Man(a1-6)]Man(b1-4)GlcNAc(b1-4)GlcNAc
# Method in brief: as §1
# [16] = target: GlcNAc(b1-2)Man(a1-3)[GlcNAc(b1-4)][GlcNAc(b1-2)Man(a1-6)]Man(b1-4)GlcNAc(b1-4)[Fuc(a1-6)]GlcNAc
# Method in brief: as §1
# [17] = target: GlcNAc(b1-2)[GlcNAc(b1-4)]Man(a1-3)[GlcNAc(b1-2)Man(a1-6)]Man(b1-4)GlcNAc(b1-4)GlcNAc
# Method in brief: as §1
# [18] = target: GlcNAc(b1-2)[GlcNAc(b1-4)]Man(a1-3)[GlcNAc(b1-4)][GlcNAc(b1-2)Man(a1-6)]Man(b1-4)GlcNAc(b1-4)GlcNAc
# Method in brief: as §1
# [19] = target: GlcNAc(b1-2)[GlcNAc(b1-4)]Man(a1-3)[GlcNAc(b1-4)][GlcNAc(b1-2)[GlcNAc(b1-6)]Man(a1-6)]Man(b1-4)GlcNAc(b1-4)GlcNAc
# Method in brief: as §1
# [20] = target: GlcNAc(b1-2)[GlcNAc(b1-4)]Man(a1-3)[GlcNAc(b1-4)][GlcNAc(b1-2)[GlcNAc(b1-6)]Man(a1-6)]Man(b1-4)GlcNAc(b1-4)[Fuc(a1-6)]GlcNAc
# Method in brief: as §1
# [21] = target: GlcNAc(b1-2)[GlcNAc(b1-6)]Man(a1-6)[GlcNAc(b1-2)Man(a1-3)]Man(b1-4)GlcNAc(b1-4)GlcNAc
# Method in brief: as §1
# [22] = target: GlcNAc(b1-2)[GlcNAc(b1-6)]Man(a1-6)[GlcNAc(b1-2)Man(a1-3)]Man(b1-4)GlcNAc(b1-4)[Fuc(a1-6)]GlcNAc
# Method in brief: as §1
# [23] = target: GlcNAc(b1-2)[GlcNAc(b1-6)]Man(a1-6)[GlcNAc(b1-4)][GlcNAc(b1-2)Man(a1-3)]Man(b1-4)GlcNAc(b1-4)GlcNAc
# Method in brief: as §1
# GlcNAc(b1-3)Fuc = target: GlcNAc(b1-3)Fuc
# Method in brief: as §1
# GlcNAc(b1-3)Gal = target: GlcNAc(b1-3)Gal
# Method in brief: as §1
# [24] = target: GlcNAc(b1-3)Gal(b1-3)GalNAc
# Method in brief: as §1
# GlcNAc(b1-3)Gal(b1-4)Glc = target: GlcNAc(b1-3)Gal(b1-4)Glc
# Method in brief: as §1
# [25] = target: GlcNAc(b1-3)Gal(b1-4)GlcNAc
# Method in brief: as §1
# [26] = target: GlcNAc(b1-3)Gal(b1-4)GlcNAc(b1-2)Man(a1-3)[GlcNAc(b1-3)Gal(b1-4)GlcNAc(b1-2)Man(a1-6)]Man(b1-4)GlcNAc(b1-4)GlcNAc
# Method in brief: as §1
# [27] = target: GlcNAc(b1-3)Gal(b1-4)GlcNAc(b1-2)Man(a1-3)[GlcNAc(b1-3)Gal(b1-4)GlcNAc(b1-2)Man(a1-6)]Man(b1-4)GlcNAc(b1-4)[Fuc(a1-6)]GlcNAc
# Method in brief: as §1
# [28] = target: GlcNAc(b1-3)Gal(b1-4)GlcNAc(b1-2)[GlcNAc(b1-3)Gal(b1-4)GlcNAc(b1-6)]Man(a1-6)[GlcNAc(b1-3)Gal(b1-4)GlcNAc(b1-2)Man(a1-3)]Man(b1-4)GlcNAc(b1-4)GlcNAc
# Method in brief: as §1
# [29] = target: GlcNAc(b1-3)Gal(b1-4)GlcNAc(b1-3)Gal(b1-4)GlcNAc
# Method in brief: as §1
binder,measurement,setting,value
B1,glycan array binding signal (z-score),Glc(b1-4)Glc,1.43
same,glycan array binding signal (z-score),Glc(b1-6)Glc,-0.909
same,glycan array binding signal (z-score),GlcA(b1-3)Gal,0
same,glycan array binding signal (z-score),GlcA(b1-3)GlcNAc,-0.514
same,glycan array binding signal (z-score),GlcA(b1-6)Gal,0.488
same,glycan array binding signal (z-score),[1],-1.14
same,glycan array binding signal (z-score),[2],-0.962
same,glycan array binding signal (z-score),[3],0.123
same,glycan array binding signal (z-score),[4],-0.11
same,glycan array binding signal (z-score),[5],-1.19
same,glycan array binding signal (z-score),[6],1.8
same,glycan array binding signal (z-score),[7],-0.079
same,glycan array binding signal (z-score),[8],0.812
same,glycan array binding signal (z-score),[9],0.138
same,glycan array binding signal (z-score),[10],0.799
same,glycan array binding signal (z-score),[11],-0.902
same,glycan array binding signal (z-score),[12],0.695
same,glycan array binding signal (z-score),[13],0.45
same,glycan array binding signal (z-score),[14],0.678
same,glycan array binding signal (z-score),[15],-1.8
same,glycan array binding signal (z-score),[16],0.682
same,glycan array binding signal (z-score),[17],-0.488
same,glycan array binding signal (z-score),[18],-0.192
same,glycan array binding signal (z-score),[19],-0.895
same,glycan array binding signal (z-score),[20],2.03
same,glycan array binding signal (z-score),[21],0.087
same,glycan array binding signal (z-score),[22],0.025
same,glycan array binding signal (z-score),[23],-2.3
same,glycan array binding signal (z-score),GlcNAc(b1-3)Fuc,1.3
same,glycan array binding signal (z-score),GlcNAc(b1-3)Gal,-0.297
same,glycan array binding signal (z-score),[24],1.4
same,glycan array binding signal (z-score),GlcNAc(b1-3)Gal(b1-4)Glc,-0.262
same,glycan array binding signal (z-score),[25],1.13
same,glycan array binding signal (z-score),[26],0.404
same,glycan array binding signal (z-score),[27],-0.745
same,glycan array binding signal (z-score),[28],1.32
same,glycan array binding signal (z-score),[29],-0.007

# A run of entries of the results above:
binder,measurement,setting,value
B1,glycan array binding signal (z-score),GlcA(b1-3)Gal,0
same,glycan array binding signal (z-score),GlcA(b1-3)GlcNAc,-0.514
